Data as given in PubChem BioAssay AID493246 (Drosophila RNAi Screening Center, 2011).
In all, the deposit lists about 21,000 reagents; shown is a random part of those with a known target gene and a result. Over the whole deposit, 429 (2%) got an active call. 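Values are raw and not normalised between plates; calls rest on per-plate z-scores that were not deposited.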 Not given: the amount of reagent, the time to read-out.

Assay: 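Identify essential fly genes by loss of cell viability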 (primary screen)
System: Drosophila Kc and S2R+ cells
Reagents: long dsRNA against Drosophila genes
Detection: 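Raw, unnormalised count of remaining cells in each well; per-plate z-scores of cell number underlie the calls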
Reading the numbers: Kc cell number and S2R+ cell number: higher = more cells remaining
Active means: 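Counted as a hit if cell number falls by a z-score of at least 3 within its plate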

Cyp4p1 [DRSC07372] | Kc cell number, rep 1: 1.73e6; Kc cell number, rep 2: 1.77e6; S2R+ cell number, rep 1: 1.39e6; S2R+ cell number, rep 2: 1.58e6; outcome: inactive
CG11656 [DRSC14338] | Kc cell number, rep 1: 1.58e6; Kc cell number, rep 2: 1.64e6; S2R+ cell number, rep 1: 1.31e6; S2R+ cell number, rep 2: 1.39e6; outcome: inactive
CG15615 [DRSC06568] | Kc cell number, rep 1: 1.52e6; Kc cell number, rep 2: 1.58e6; S2R+ cell number, rep 1: 1.12e6; S2R+ cell number, rep 2: 1.26e6; outcome: inactive
CG15643 [DRSC19679] | Kc cell number, rep 1: 1.44e6; Kc cell number, rep 2: 1.49e6; S2R+ cell number, rep 1: 1.05e6; S2R+ cell number, rep 2: 1.14e6; outcome: inactive
CG17883 [DRSC07838] | Kc cell number, rep 1: 1.45e6; Kc cell number, rep 2: 1.30e6; S2R+ cell number, rep 1: 9.53e5; S2R+ cell number, rep 2: 1.23e6; outcome: inactive
Hsc70-2 [DRSC16710] | Kc cell number, rep 1: 1.46e6; Kc cell number, rep 2: 1.43e6; S2R+ cell number, rep 1: 1.02e6; S2R+ cell number, rep 2: 1.11e6; outcome: inactive
Reck [DRSC10504] | Kc cell number, rep 1: 1.64e6; Kc cell number, rep 2: 1.68e6; S2R+ cell number, rep 1: 1.21e6; S2R+ cell number, rep 2: 1.29e6; outcome: inactive
Reck [DRSC10505] | Kc cell number, rep 1: 1.40e6; Kc cell number, rep 2: 1.56e6; S2R+ cell number, rep 1: 1.31e6; S2R+ cell number, rep 2: 1.50e6; outcome: inactive
CG2811 [DRSC04318] | Kc cell number, rep 1: 1.56e6; Kc cell number, rep 2: 1.56e6; S2R+ cell number, rep 1: 1.17e6; S2R+ cell number, rep 2: 1.38e6; outcome: inactive
csw [DRSC18756] | Kc cell number, rep 1: 1.44e6; Kc cell number, rep 2: 1.45e6; S2R+ cell number, rep 1: 9.96e5; S2R+ cell number, rep 2: 1.11e6; outcome: inactive
sqh [DRSC18837] | Kc cell number, rep 1: 5.76e5; S2R+ cell number, rep 1: 8.71e5; outcome: inactive
Npc1a [DRSC03378] | Kc cell number, rep 1: 1.56e6; Kc cell number, rep 2: 1.59e6; S2R+ cell number, rep 1: 1.17e6; S2R+ cell number, rep 2: 1.30e6; outcome: inactive
CR33319 [DRSC01826] | Kc cell number, rep 1: 5.97e5; S2R+ cell number, rep 1: 9.54e5; outcome: inactive
smo [DRSC00837] | Kc cell number, rep 1: 1.35e6; Kc cell number, rep 2: 1.40e6; S2R+ cell number, rep 1: 9.76e5; S2R+ cell number, rep 2: 8.99e5; outcome: inactive
CG13566 [DRSC04203] | Kc cell number, rep 1: 1.68e6; Kc cell number, rep 2: 1.69e6; S2R+ cell number, rep 1: 1.40e6; S2R+ cell number, rep 2: 1.39e6; outcome: inactive

Continued, starting with the last 3 of the part before.
CR33319 [DRSC01826] | Kc cell number, rep 1: 5.97e5; S2R+ cell number, rep 1: 9.54e5; outcome: inactive
smo [DRSC00837] | Kc cell number, rep 1: 1.35e6; Kc cell number, rep 2: 1.40e6; S2R+ cell number, rep 1: 9.76e5; S2R+ cell number, rep 2: 8.99e5; outcome: inactive
CG13566 [DRSC04203] | Kc cell number, rep 1: 1.68e6; Kc cell number, rep 2: 1.69e6; S2R+ cell number, rep 1: 1.40e6; S2R+ cell number, rep 2: 1.39e6; outcome: inactive
yem [DRSC14865] | Kc cell number, rep 1: 1.47e6; Kc cell number, rep 2: 1.57e6; S2R+ cell number, rep 1: 1.08e6; S2R+ cell number, rep 2: 1.19e6; outcome: inactive
yem [DRSC17097] | Kc cell number, rep 1: 1.46e6; Kc cell number, rep 2: 1.52e6; S2R+ cell number, rep 1: 9.97e5; S2R+ cell number, rep 2: 1.07e6; outcome: inactive
Rpp30 [DRSC00320] | Kc cell number, rep 1: 1.30e6; Kc cell number, rep 2: 1.41e6; S2R+ cell number, rep 1: 1.06e6; S2R+ cell number, rep 2: 1.00e6; outcome: inactive
CG13220 [DRSC06342] | Kc cell number, rep 1: 1.47e6; Kc cell number, rep 2: 1.49e6; S2R+ cell number, rep 1: 1.23e6; S2R+ cell number, rep 2: 1.27e6; outcome: inactive
CG7523 [DRSC16254] | Kc cell number, rep 1: 1.58e6; Kc cell number, rep 2: 1.60e6; S2R+ cell number, rep 1: 1.25e6; S2R+ cell number, rep 2: 1.30e6; outcome: inactive
Nep2 [DRSC12126] | Kc cell number, rep 1: 1.52e6; Kc cell number, rep 2: 1.58e6; S2R+ cell number, rep 1: 1.47e6; S2R+ cell number, rep 2: 1.46e6; outcome: inactive
CG6696 [DRSC20004] | Kc cell number, rep 1: 1.48e6; Kc cell number, rep 2: 1.54e6; S2R+ cell number, rep 1: 9.76e5; S2R+ cell number, rep 2: 1.15e6; outcome: inactive
CG13360 [DRSC18536] | Kc cell number, rep 1: 6.34e5; S2R+ cell number, rep 1: 9.14e5; outcome: inactive
Notum [DRSC09959] | Kc cell number, rep 1: 1.27e6; Kc cell number, rep 2: 1.51e6; S2R+ cell number, rep 1: 1.26e6; S2R+ cell number, rep 2: 1.44e6; outcome: inactive
CG42450 [DRSC20022] | Kc cell number, rep 1: 1.51e6; Kc cell number, rep 2: 1.50e6; S2R+ cell number, rep 1: 1.03e6; S2R+ cell number, rep 2: 1.13e6; outcome: inactive
CG5404 [DRSC15793] | Kc cell number, rep 1: 1.54e6; Kc cell number, rep 2: 1.54e6; S2R+ cell number, rep 1: 1.55e6; S2R+ cell number, rep 2: 1.67e6; outcome: inactive
CR30068 (retired record) [DRSC05477] | Kc cell number, rep 1: 1.57e6; Kc cell number, rep 2: 1.59e6; S2R+ cell number, rep 1: 1.07e6; S2R+ cell number, rep 2: 1.19e6; outcome: inactive
